{"sequences": {"note": "Chains of the proteins cited; added tags and fusions are not shown. Lines headed by an entry give the natural chain unless they say otherwise; changes in a name come on top. Residues count along the entry.", "UniProt P10586, residues 30-1907": "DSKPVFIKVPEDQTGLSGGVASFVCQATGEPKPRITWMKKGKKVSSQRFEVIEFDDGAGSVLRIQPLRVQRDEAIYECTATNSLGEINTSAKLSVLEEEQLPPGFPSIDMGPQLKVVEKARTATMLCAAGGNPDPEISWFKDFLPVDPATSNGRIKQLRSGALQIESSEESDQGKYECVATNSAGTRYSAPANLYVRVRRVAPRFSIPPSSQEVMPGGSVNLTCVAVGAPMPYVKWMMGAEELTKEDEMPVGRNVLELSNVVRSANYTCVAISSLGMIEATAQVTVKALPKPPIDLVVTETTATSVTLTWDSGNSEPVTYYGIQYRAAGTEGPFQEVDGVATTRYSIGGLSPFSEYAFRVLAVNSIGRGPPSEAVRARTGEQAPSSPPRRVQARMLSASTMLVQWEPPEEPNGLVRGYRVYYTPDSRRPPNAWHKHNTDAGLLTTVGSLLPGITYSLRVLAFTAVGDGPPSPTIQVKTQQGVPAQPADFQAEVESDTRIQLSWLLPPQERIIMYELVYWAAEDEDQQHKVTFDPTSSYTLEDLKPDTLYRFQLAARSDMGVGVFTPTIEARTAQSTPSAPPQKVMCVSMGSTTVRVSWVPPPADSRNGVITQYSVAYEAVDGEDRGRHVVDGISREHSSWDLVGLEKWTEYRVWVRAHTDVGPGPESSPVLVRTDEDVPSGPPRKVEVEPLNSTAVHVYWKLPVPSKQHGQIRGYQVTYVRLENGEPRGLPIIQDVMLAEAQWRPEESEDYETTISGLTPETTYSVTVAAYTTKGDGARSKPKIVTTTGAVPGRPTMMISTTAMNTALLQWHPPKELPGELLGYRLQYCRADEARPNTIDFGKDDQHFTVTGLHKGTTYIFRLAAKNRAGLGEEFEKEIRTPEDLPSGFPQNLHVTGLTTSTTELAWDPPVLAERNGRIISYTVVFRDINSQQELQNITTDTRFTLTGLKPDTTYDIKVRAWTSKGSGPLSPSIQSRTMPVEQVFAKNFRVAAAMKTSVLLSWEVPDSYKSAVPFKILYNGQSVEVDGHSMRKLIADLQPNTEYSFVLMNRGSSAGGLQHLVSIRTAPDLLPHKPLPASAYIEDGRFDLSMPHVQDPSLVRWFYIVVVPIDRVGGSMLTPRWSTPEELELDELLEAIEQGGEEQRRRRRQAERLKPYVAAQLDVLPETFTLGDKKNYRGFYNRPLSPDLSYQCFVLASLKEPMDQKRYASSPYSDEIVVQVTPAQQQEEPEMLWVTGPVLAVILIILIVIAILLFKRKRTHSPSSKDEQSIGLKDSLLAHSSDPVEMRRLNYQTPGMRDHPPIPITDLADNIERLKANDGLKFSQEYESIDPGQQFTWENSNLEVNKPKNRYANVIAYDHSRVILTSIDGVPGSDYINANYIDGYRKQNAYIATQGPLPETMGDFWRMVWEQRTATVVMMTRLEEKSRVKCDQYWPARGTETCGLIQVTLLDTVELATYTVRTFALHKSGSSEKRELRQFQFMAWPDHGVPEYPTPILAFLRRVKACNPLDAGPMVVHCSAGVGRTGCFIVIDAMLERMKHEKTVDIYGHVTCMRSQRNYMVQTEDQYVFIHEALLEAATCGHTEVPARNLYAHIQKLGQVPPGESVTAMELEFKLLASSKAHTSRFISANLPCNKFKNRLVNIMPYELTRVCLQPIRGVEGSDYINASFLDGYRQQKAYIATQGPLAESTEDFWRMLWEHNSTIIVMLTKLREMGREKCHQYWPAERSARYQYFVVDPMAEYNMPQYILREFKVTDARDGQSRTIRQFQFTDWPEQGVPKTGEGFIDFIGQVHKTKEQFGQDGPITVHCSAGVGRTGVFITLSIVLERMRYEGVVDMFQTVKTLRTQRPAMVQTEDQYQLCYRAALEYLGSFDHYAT", "UniProt P20333": "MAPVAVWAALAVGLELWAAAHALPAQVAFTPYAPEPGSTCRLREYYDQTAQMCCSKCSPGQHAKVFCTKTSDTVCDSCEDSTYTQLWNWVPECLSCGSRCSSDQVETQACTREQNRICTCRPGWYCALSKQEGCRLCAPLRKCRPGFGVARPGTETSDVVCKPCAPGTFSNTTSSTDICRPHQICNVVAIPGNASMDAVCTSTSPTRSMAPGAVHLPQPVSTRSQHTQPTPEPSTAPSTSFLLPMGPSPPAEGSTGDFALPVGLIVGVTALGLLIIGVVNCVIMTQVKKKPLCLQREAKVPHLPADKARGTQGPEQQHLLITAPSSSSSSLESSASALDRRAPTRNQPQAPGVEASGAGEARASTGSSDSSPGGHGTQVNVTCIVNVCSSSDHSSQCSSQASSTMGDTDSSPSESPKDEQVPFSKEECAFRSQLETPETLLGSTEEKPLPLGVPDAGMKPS"}, "source": "patent US20180273604A1", "about": "(ALBERT EINSTEIN COLLEGE OF MEDICINE, published 2018)", "molecules": {"B1": {"name": "B7-1, human, expressed on cells (ligand, UniProt P33681 35-288, looked up)", "chain": "VIHVTKEVKEVATLSCGHNVSVEELAQTRIYWQKEKKMVLTMMSGDMNIWPEYKNRTIFDITNNLSIVILALRPSDEGTYECVVLKYEKDAFKREHLAEVTLSVKADFPTPSISDFEIPTSNIRRIICSTSGGFPEPHLSWLENGEELNAINTTVSQDPETELYAVSSKLDFNMTTNHSFMCLIKYGHLRVNQTFNWNTTKQEHFPDNLLPSWAITLISVNGIFVICCLTYCFAPRCRERRRNERLRRESVRPV", "notes": "whole, on cells"}, "B2": {"name": "NGFR, human, expressed on cells, P08138 29-427 (receptor, UniProt P08138 29-427, looked up)", "chain": "KEACPTGLYTHSGECCKACNLGEGVAQPCGANQTVCEPCLDSVTFSDVVSATEPCKPCTECVGLQSMSAPCVEADDAVCRCAYGYYQDETTGRCEACRVCEAGSGLVFSCQDKQNTVCEECPDGTYSDEANHVDPCLPCTVCEDTERQLRECTRWADAECEEIPGRWITRSTPPEGSDSTAPSTQEPEAPPEQDLIASTVAGVVTTVMGSSQPVVTRGTTDNLIPVYCSILAAVVVGLVAYIAFKRWNSCKQNKQGANSRPVNQTPPPEGEKLHSDSGISVDSQSLHDQQPHTQTASGQALKGDGGLYSSLPPAKREEVEKLLNGSAGDTWRHLAGELGYQPEHIDSFTHEACPVRALLASWATQDSATLDALLAALRRIQRADLVESLCSESTATSPV"}}, "key": {"[1]": {"target": "PTPR-F, human, expressed on cells (human) (UniProt P10586)", "assay": "cell-cell FACS screen, NGFR query cells vs GFP library cells"}, "[2]": {"target": "Monkey ICOS-L (rhesus monkey, Macca mulatta), expressed on HEK 293 cells (rhesus monkey (Macca mulatta))", "assay": "cell-cell FACS binding assay, GFP vs mCherry HEK 293 cells"}, "[3]": {"target": "T1, ISLR2 (Immunoglobulin superfamily containing leucine-rich repeat protein 2), human, expressed on cells (human) (UniProt Q6UXK2)", "T1 sequence (looked up)": "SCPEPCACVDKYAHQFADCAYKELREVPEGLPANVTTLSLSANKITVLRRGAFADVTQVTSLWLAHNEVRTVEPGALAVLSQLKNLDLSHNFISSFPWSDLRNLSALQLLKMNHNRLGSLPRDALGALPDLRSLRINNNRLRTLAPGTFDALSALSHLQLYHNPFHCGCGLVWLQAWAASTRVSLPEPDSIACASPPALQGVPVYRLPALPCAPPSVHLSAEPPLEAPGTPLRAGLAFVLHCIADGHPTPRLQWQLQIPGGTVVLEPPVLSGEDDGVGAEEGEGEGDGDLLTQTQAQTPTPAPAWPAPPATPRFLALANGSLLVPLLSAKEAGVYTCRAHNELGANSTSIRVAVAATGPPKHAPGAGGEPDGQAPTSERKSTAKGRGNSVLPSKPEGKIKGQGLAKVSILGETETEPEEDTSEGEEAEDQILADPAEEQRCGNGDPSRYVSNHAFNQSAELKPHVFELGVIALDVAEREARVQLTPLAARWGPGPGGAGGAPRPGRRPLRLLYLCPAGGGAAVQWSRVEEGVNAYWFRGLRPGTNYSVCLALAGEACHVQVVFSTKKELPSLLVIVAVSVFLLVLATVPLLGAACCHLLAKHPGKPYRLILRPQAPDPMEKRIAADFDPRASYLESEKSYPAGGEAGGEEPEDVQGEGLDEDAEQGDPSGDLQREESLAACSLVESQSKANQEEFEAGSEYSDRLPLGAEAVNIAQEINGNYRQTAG", "assay": "cell-cell FACS screen, TNFR-1B-mCherry query cells vs GFP library cells"}, "[4]": {"target": "T1, ISLR2 (Immunoglobulin superfamily containing leucine-rich repeat protein 2), human, expressed on cells (human)", "assay": "listed as newly discovered in this disclosure (cell-cell FACS screens)"}, "[5]": {"target": "T1, ISLR2 (Immunoglobulin superfamily containing leucine-rich repeat protein 2), human, expressed on cells (human)", "assay": "cell-cell FACS screen of the ~400 member library"}, "[6]": {"target": "T1, ISLR2 (Immunoglobulin superfamily containing leucine-rich repeat protein 2), human, expressed on cells (human)", "assay": "high-throughput cell-cell FACS screen"}, "[7]": {"target": "T2, ISLR2 (Immunoglobulin superfamily containing leucine-rich repeat protein 2), human, expressed on cells (human), Q6UXK2", "T2 chain": "T1 sequence (looked up)", "assay": "listed as newly discovered in this disclosure (cell-cell FACS screens)", "conditions": "remark: other sources report otherwise"}, "[8]": {"target": "T2, ISLR2 (Immunoglobulin superfamily …)", "assay": "cell-cell FACS screen, B7-1 query cells vs GFP library cells", "conditions": "remark: other sources report otherwise"}, "[9]": {"target": "T2, ISLR2 (Immunoglobulin superfamily …)", "assay": "cell-cell FACS screen of the ~400 member library", "conditions": "remark: other sources report otherwise"}, "[10]": {"target": "T3, ISLR, human, expressed on cells (human), O14498", "T3 chain": "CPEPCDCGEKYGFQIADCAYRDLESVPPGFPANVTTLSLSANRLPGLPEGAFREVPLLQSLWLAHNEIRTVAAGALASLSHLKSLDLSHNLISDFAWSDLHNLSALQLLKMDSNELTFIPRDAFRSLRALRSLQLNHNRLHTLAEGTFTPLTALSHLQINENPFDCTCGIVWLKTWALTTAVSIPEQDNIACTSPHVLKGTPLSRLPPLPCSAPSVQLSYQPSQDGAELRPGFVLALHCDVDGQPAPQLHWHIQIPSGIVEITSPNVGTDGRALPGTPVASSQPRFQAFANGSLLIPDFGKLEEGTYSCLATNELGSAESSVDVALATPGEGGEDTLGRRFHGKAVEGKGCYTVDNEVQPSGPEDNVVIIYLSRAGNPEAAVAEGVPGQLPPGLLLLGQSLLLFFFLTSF", "assay": "cell-cell FACS screen, NGFR query cells vs GFP library cells", "conditions": "remark: other sources report otherwise"}}, "note": "No constants are given. Whether binding was seen depends on the method and setting. Some entries that bind do so weakly or less than the wild type.", "data": [{"molecule": "NGFR, human, expressed on cells (from UniProt P08138 29-427) (receptor)", "values": [{"measurement": "binding", "setting": "[1]", "result": "binds"}]}, {"molecule": "tumor necrosis factor receptor 1B (TNFR-1B), human, expressed on HEK 293 cells (from UniProt P20333 23-461)", "values": [{"measurement": "binding", "setting": "[2]", "result": "binds"}, {"measurement": "binding", "setting": "[3]", "result": "binds"}, {"measurement": "binding", "setting": "[4]", "result": "binds"}, {"measurement": "binding", "setting": "[5]", "result": "binds"}, {"measurement": "binding", "setting": "[6]", "result": "binds"}]}, {"molecule": "B1", "values": [{"measurement": "binding", "setting": "[7]", "result": "binds"}, {"measurement": "binding", "setting": "[8]", "result": "binds"}, {"measurement": "binding", "setting": "[9]", "result": "binds"}]}, {"molecule": "B2", "values": [{"measurement": "binding", "setting": "[10]", "result": "binds"}]}]}
